Measured values published in the supplement of paper PMC6411743.
± gives the standard deviation of the averaged measurements. The list shows a part of the results.

Protein sequences, listed by entry. Tags and fused reporters are not part of them. Lines headed by an entry give the natural chain unless they say otherwise; changes in a name come on top.
UniProt Q8IZM8: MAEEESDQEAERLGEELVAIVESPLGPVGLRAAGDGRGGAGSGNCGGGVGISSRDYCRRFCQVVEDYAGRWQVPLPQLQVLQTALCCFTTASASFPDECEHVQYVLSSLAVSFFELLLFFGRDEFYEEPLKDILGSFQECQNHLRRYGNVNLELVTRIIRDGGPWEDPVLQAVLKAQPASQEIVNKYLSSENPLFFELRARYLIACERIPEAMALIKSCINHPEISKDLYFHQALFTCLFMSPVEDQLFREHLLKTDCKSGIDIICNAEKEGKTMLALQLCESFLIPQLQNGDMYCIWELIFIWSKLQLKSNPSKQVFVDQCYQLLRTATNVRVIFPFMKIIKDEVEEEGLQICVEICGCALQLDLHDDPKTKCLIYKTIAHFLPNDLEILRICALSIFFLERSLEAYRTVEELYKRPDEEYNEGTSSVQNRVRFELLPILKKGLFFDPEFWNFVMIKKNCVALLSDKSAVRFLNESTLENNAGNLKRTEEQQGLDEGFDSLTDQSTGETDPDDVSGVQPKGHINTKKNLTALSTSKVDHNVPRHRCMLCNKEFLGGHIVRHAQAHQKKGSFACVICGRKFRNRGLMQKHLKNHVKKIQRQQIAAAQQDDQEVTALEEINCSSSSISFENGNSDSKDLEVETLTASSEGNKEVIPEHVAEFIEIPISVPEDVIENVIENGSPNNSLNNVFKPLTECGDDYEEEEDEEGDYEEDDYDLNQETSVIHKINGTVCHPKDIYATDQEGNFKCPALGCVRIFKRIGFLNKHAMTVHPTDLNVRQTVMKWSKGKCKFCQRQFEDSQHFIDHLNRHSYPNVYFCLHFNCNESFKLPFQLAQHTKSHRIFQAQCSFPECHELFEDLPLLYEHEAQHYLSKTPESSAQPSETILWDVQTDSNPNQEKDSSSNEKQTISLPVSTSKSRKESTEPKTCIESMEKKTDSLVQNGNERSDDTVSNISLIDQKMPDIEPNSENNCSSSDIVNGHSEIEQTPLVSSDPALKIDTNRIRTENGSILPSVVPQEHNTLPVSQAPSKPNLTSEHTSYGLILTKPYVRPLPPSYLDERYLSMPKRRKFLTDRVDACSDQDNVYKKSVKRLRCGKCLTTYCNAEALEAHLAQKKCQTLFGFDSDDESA
UniProt Q8IVD9: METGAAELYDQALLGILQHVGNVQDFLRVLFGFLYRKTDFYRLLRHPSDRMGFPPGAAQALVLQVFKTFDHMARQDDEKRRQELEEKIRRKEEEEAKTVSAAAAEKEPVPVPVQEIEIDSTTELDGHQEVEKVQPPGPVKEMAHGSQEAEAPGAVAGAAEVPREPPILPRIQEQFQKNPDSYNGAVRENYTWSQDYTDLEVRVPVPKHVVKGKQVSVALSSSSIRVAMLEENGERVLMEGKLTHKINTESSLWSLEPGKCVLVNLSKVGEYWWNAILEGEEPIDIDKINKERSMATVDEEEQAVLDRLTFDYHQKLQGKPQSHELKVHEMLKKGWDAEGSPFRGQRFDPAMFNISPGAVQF
UniProt Q8N6N3: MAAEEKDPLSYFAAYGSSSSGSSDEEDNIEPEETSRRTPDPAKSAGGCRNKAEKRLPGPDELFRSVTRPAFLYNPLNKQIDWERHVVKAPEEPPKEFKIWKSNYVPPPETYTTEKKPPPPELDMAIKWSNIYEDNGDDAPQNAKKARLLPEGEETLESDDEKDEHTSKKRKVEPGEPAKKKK
UniProt Q8NB46: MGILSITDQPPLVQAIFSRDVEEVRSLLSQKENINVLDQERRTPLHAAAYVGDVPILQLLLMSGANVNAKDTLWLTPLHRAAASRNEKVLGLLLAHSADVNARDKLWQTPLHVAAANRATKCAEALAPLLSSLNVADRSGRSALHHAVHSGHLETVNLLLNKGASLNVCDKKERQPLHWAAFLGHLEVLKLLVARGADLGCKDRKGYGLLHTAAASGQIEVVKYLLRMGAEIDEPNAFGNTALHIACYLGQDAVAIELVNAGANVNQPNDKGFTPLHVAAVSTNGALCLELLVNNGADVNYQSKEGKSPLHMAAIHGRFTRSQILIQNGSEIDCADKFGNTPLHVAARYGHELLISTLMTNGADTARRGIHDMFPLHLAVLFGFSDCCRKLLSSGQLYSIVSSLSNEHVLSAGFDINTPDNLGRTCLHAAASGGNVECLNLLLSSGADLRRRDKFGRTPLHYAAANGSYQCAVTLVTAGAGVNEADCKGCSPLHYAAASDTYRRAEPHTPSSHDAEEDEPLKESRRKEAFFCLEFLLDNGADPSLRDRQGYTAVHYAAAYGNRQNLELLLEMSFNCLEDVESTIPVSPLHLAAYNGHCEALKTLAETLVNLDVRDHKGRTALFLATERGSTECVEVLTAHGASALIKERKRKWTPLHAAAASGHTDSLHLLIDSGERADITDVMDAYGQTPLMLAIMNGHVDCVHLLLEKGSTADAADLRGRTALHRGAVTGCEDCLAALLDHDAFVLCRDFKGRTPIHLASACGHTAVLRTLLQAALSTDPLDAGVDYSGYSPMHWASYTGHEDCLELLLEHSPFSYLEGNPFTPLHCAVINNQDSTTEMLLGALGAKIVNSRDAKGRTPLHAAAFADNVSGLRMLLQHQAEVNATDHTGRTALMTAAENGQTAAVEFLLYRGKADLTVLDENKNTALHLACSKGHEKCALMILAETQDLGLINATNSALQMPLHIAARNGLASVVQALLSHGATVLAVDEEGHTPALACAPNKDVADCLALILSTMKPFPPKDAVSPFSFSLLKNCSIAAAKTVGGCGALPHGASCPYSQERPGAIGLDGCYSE

Compound: Nc1nc2c(ncn2[C@@H]2O[C@H](COP(=O)(O)OP(=O)(O)OP(=O)(O)O)[C@@H](O)[C@H]2O)c(=O)[nH]1 [guanosine triphosphate]
Assay: NP40-soluble protein abundance relative to vehicle (solubility fold change) (ratio); higher = more soluble protein in presence of GTP
Protocol: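 Solubility proteome profiling in Jurkat crude lysate. Lysate was treated with Mg-GTP (0.1-10 mM) for 10 min at room temperature and 3 min at 37 °C, then solubilised with 0.8% NP40 and benzonase, followed by ultracentrifugation. Proteins were quantified by TMT10 LC-MS/MS; the value is the NP40-soluble abundance relative to the NP40-processed vehicle, from 3 independent experiments.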

UniProt Q8IZM8
NP40-soluble protein abundance (concentration: 0.1mM): 1.08 ± 0.016
NP40-soluble protein abundance (concentration: 0.5mM): 1.12 ± 0.044
NP40-soluble protein abundance (concentration: 1mM): 1.1 ± 0.023
NP40-soluble protein abundance (concentration: 2mM): 1.08 ± 0.087
NP40-soluble protein abundance (concentration: 4mM): 0.975 ± 0.028
NP40-soluble protein abundance (concentration: 6mM): 1.03 ± 0.022
NP40-soluble protein abundance (concentration: 8mM): 1.11 ± 0.047
NP40-soluble protein abundance (concentration: 10mM): 1.08 ± 0.036

NUDCD3 (UniProt Q8IVD9)
NP40-soluble protein abundance (concentration: 0.1mM): 0.934 ± 0.019
NP40-soluble protein abundance (concentration: 0.5mM): 0.965 ± 0.017
NP40-soluble protein abundance (concentration: 1mM): 0.913 ± 0.018
NP40-soluble protein abundance (concentration: 2mM): 0.917 ± 0.012
NP40-soluble protein abundance (concentration: 4mM): 0.879 ± 0.062
NP40-soluble protein abundance (concentration: 6mM): 0.901 ± 0.031
NP40-soluble protein abundance (concentration: 8mM): 0.899 ± 0.027
NP40-soluble protein abundance (concentration: 10mM): 0.909 ± 0.037

UniProt Q8N3U4-2|Q8N3U4 and related entries
NP40-soluble protein abundance (concentration: 0.1mM): 1.09 ± 0.031
NP40-soluble protein abundance (concentration: 0.5mM): 1.11 ± 0.065
NP40-soluble protein abundance (concentration: 1mM): 0.978 ± 0.067
NP40-soluble protein abundance (concentration: 2mM): 1.03 ± 0.13
NP40-soluble protein abundance (concentration: 4mM): 1.02 ± 0.075
NP40-soluble protein abundance (concentration: 6mM): 0.998 ± 0.11
NP40-soluble protein abundance (concentration: 8mM): 0.985 ± 0.036
NP40-soluble protein abundance (concentration: 10mM): 0.913 ± 0.071

UniProt Q8N6N3 and related entries
NP40-soluble protein abundance (concentration: 0.1mM): 1.05 ± 0.16
NP40-soluble protein abundance (concentration: 0.5mM): 1.01 ± 0.035
NP40-soluble protein abundance (concentration: 1mM): 1.04 ± 0.015
NP40-soluble protein abundance (concentration: 2mM): 0.998 ± 0.053
NP40-soluble protein abundance (concentration: 4mM): 0.981 ± 0.11
NP40-soluble protein abundance (concentration: 6mM): 1.03 ± 0.11
NP40-soluble protein abundance (concentration: 8mM): 1.04 ± 0.052
NP40-soluble protein abundance (concentration: 10mM): 1.04 ± 0.024

ANKRD52 (UniProt Q8NB46)
NP40-soluble protein abundance (concentration: 0.1mM): 0.946 ± 0.12
NP40-soluble protein abundance (concentration: 0.5mM): 1.08 ± 0.045
NP40-soluble protein abundance (concentration: 1mM): 1 ± 0.049
NP40-soluble protein abundance (concentration: 2mM): 1.03 ± 0.048
NP40-soluble protein abundance (concentration: 4mM): 1.102 ± 0.011
NP40-soluble protein abundance (concentration: 6mM): 0.948 ± 0.088
NP40-soluble protein abundance (concentration: 8mM): 1.07 ± 0.054
NP40-soluble protein abundance (concentration: 10mM): 1.01 ± 0.14
